Experimental data as given in patent US5308581A, “Substance of an optical fluorescence measuring arrangement for measuring the pH of a sample and optical sensor with such an indicator substance” (AVL Medical Instruments AG, priority 1990, dated 1994).
The name of at least one read-out is uncertain.

Assay: acid dissociation of the indicator in its electronically excited state (pKa *)
Assay type: physicochemical
Excerpt: S and .tau.B of the acidic forms (AH*, BH^+*) and basic forms (S^-*, B*) of the indicator differ from each other. In both fundamental instances the measured luminescence decay time .tau. is a function of the luminescence decay times .tau.B and .tau.S, their weighting depending on the pH prevailing in the sample.
The pKa * value of the electronically excited acid (AH* or BH^+*) is in the relevant measuring range.

Structure (SMILES)	pKa * acidic form (AH*) in excited state
O=C(O)Cc1c[nH]c2ccccc12 [3-indolylacetic acid]	~2
O=Cc1ccccc1O [Salicylaldehyde]	~2
